{
  "source": "PubChem BioAssay AID1745850",
  "about": "(National Center for Advancing Translational Sciences (NCATS), 2022)",
  "note": "Among all 2,100 compounds or so, about 260 (12%) were called active. Inconclusive results, whose numbers are uncertain, are shown with a selection of clear calls. Calls follow the shape of the dose curve; as a rule, active = well fitted cell-killing curve with a large enough effect; inconclusive = small, poorly fitted or top-dose-only effect, or effect the other way; inactive = flat fitted curve, though single readings scatter. A potency beside an inconclusive call is a rough fit, not a confirmed value. Potency is read from the fitted curve at half-maximal effect.",
  "data": [
    {"test": "Viability Counterscreen for Confirmatory qHTS for Inhibitors of ATXN expression; also: nearly all actives have a fitted effect of over 50% in size", "conditions": "HEK-293 ATXN2-luc cells viability, CellTiter-Fluor, 24 h", "method_in_brief": "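Luminescence read-out (SteadyGlo, 5 min) followed a 30 min Gly-Phe-AFC (25 uM final) viability fluorescence read. ATXN2-luciferase reporter cells were exposed 24 h to a dilution series. Medium-only wells served as the 100% inhibition reference.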", "values": [
      {"smiles": "CCOC(=O)c1c(NC(=O)CSc2nnnn2-c2ccccc2)sc2c1CC(C)(C)NC2(C)C", "Potency": "inconclusive: 5.01 µM [cytotoxic, single point]"},
      {"smiles": "Nn1cnnc1N/N=C/c1cc(Br)cc(Br)c1O", "Potency": "inactive"},
      {"smiles": "Cc1ncc(CO)c(/C=N/Nc2ccc(C(F)(F)F)cn2)c1O", "Potency": "inconclusive: 10 µM [cytotoxic, partial curve]"},
      {"smiles": "Cc1ccc(NC(=O)CNC(=O)c2cccc(Cl)c2)nc1", "Potency": "inactive"},
      {"smiles": "CCCCn1c(SCC(=O)Nc2cc(NC(=O)c3ccco3)ccc2C)nc2ccccc2c1=O", "Potency": "inactive"},
      {"smiles": "CN(C)CCNc1ccc(CO)c2sc3ccc(O)cc3c(=O)c12", "Potency": "inconclusive: 17.8 µM [cytotoxic, partial curve, poor fit]"},
      {"smiles": "COc1cc(OC)cc(-c2cc3nc(C)c(CCC(=O)NCc4ccccc4)c(C)n3n2)c1", "Potency": "inactive"},
      {"smiles": "Cc1ccc(/C=C2\\SC(=S)N(CCCC(=O)Nc3ccc(O)cc3)C2=O)cc1", "Potency": "inactive"},
      {"smiles": "O=C(c1c(F)cccc1F)N1CCCC(c2nc(-c3ccc(Cl)cc3)no2)C1", "note": "(stereo unspecified)", "Potency": "inconclusive: 31.6 µM [cytotoxic, partial curve, poor fit]"},
      {"smiles": "Cc1cc(C)c2c(N)c3cccc(C)c3nc2n1", "Potency": "inconclusive: 39.8 µM [rising, single point]"},
      {"smiles": "CCc1nc2ccc(C(=O)Nc3cccc(NS(C)(=O)=O)c3)cn2c1N(C)CCCc1ccccc1", "Potency": "inconclusive: 39.8 µM [cytotoxic, single point]"},
      {"smiles": "CC(C)n1cnc2c(N(C)c3ccccc3)nc(N(CCN(C)C)Cc3ccccc3)nc21", "Potency": "inconclusive: 31.6 µM [cytotoxic, single point]"},
      {"smiles": "Cc1ccsc1/C=C/C1=Cc2c(sc(NC(=O)CSc3n[nH]c(N)n3)c2C#N)C(C)(C)C1", "Potency": "inactive"},
      {"smiles": "O=C1CCCC(O)=C1C=NCc1ccccc1", "Potency": "inactive"},
      {"smiles": "CC1(Cc2ccc(C(F)(F)F)o2)C(=O)Nc2ccc(-c3cccc(C(F)(F)F)c3)cc21", "note": "(stereo unspecified)", "Potency": "inconclusive: 39.8 µM [cytotoxic, single point]"},
      {"smiles": "CN1CCN(c2cc(-c3cc(O)c4ncccc4c3)ccn2)CC1", "Potency": "active: 31.6 µM"},
      {"smiles": "O=C(c1ccc(Cn2c(=S)[nH]c3ccccc3c2=O)cc1)N1CCN(c2ccccn2)CC1", "Potency": "inconclusive: 3.55 µM [cytotoxic, single point]"},
      {"smiles": "O=C(/C=C\\c1ccccc1)NCC(=O)N/N=C/c1ccc(O)cc1O", "Potency": "inconclusive: 17.8 µM [cytotoxic, partial curve]"},
      {"smiles": "CCN(CC)c1ccc(/C=C/c2cccc[n+]2C)c(OC)c1", "Potency": "active: 12.6 µM"},
      {"smiles": "CC(C)C[C@H](N)c1cn([C@@H](CCCCN)C(=O)N2CCNCC2)nn1", "Potency": "inactive"},
      {"smiles": "C(=N\\Nc1nc2ccccc2[nH]1)/c1cccc2nccnc12", "Potency": "inactive"},
      {"smiles": "CCN(CC)CCn1nc2c3c(cccc3c1=O)-c1ccccc1-2", "Potency": "active: 14.1 µM"},
      {"smiles": "COC1CC(C)C(OC)c2cc(O)cc(c2O)NC(=O)C(C)=CC=CC(C)C(OC(N)=O)C(C)=CC(C)C1OC", "note": "(stereo unspecified)", "Potency": "inconclusive: 25.1 µM [cytotoxic, single point]"},
      {"smiles": "Cc1cccn2c(=O)c3cc(C(=O)NCCc4ccccc4)c(=N)n(CCCn4ccnc4)c3nc12", "Potency": "inactive"},
      {"smiles": "Cc1ccnc(N2C(=O)c3cccc4c([N+](=O)[O-])ccc(c34)C2=O)c1", "Potency": "inactive"},
      {"smiles": "O=C(CN1C(=O)C2CCCCC2C1=O)Nc1nc(-c2ccccn2)cs1", "note": "(stereo unspecified)", "Potency": "inconclusive: 31.6 µM [cytotoxic, single point]"},
      {"smiles": "C=CCc1cccc(/C=N/NC(=O)C(C)Nc2ccc(C)cc2)c1O", "note": "(stereo unspecified)", "Potency": "inconclusive: 17.8 µM [cytotoxic, partial curve]"},
      {"smiles": "COc1cccc(/C=N/Nc2nc3ccccc3n3cnnc23)c1O", "Potency": "inactive"},
      {"smiles": "CCCS(=O)(=O)c1c(S(=O)(=O)CCC)c2c(C)cccn2c1C(=O)N/N=C/c1cc(O)cc(O)c1", "Potency": "inconclusive: 10 µM [cytotoxic, partial curve]"},
      {"smiles": "Cc1cc(C)c2nc(NNC(=O)c3ccc(S(=O)(=O)N4CCCCC4)cc3)sc2c1", "Potency": "inconclusive: 15.8 µM [cytotoxic, partial curve]"},
      {"smiles": "Cc1ccccc1N1CCN(Cc2c[nH]c3ccccc23)CC1", "Potency": "inconclusive: 35.5 µM [cytotoxic, single point]"},
      {"smiles": "Cc1cc(C(=O)N/N=C/c2c(CO)cnc(C)c2O)c2ccccc2n1", "Potency": "inconclusive: 31.6 µM [cytotoxic, partial curve]"},
      {"smiles": "COCC(C)n1c(C)cc(C(=O)COC(=O)c2cccn2C)c1C", "note": "(stereo unspecified)", "Potency": "inactive"},
      {"smiles": "Cc1onc(-c2c(Cl)cccc2Cl)c1C(=O)N/N=C(\\N)COc1ccc(Cl)cc1", "Potency": "inconclusive: 3.55 µM [cytotoxic, full curve]"},
      {"smiles": "COc1cccc(OC)c1C(=O)OCC(=O)NC(=O)NCc1ccccc1", "Potency": "inactive"},
      {"smiles": "O=C1C(Cl)=C(NCCc2ccccc2)C(=O)c2ccccc21", "Potency": "inconclusive: 39.8 µM [cytotoxic, single point]"},
      {"smiles": "COc1ccccc1N1CCN(c2ccnc3cc(Cl)ccc23)CC1", "Potency": "inconclusive: 17.8 µM [cytotoxic, partial curve, poor fit]"},
      {"smiles": "CCCC(=O)NC(c1ccco1)c1cc(Cl)c2cccnc2c1O", "note": "(stereo unspecified)", "Potency": "inconclusive: 20 µM [cytotoxic, partial curve, poor fit]"},
      {"smiles": "COc1ccc2nc(NC(=O)C3CCN(S(=O)(=O)c4cccs4)CC3)sc2c1", "Potency": "inactive"},
      {"smiles": "Cn1nnnc1Sc1ncnc2scc(-c3ccccc3Cl)c12", "Potency": "inconclusive: 3.16 µM [cytotoxic, partial curve, poor fit]"},
      {"smiles": "O=C(N/N=C/c1ccc(O)cc1O)/C(=C/c1ccccc1)CCO", "Potency": "inconclusive: 1.78 µM [cytotoxic, partial curve, poor fit]"},
      {"smiles": "Cc1cccc(Cn2c(CN3CCN(Cc4ccccc4)CC3)nc3c2c(=O)[nH]c(=O)n3C)c1", "Potency": "inconclusive: 39.8 µM [cytotoxic, single point]"},
      {"smiles": "Oc1ccc(Cc2ccccc2)c2cccnc12", "Potency": "inconclusive: 15.8 µM [cytotoxic, partial curve, poor fit]"},
      {"smiles": "c1ccc(COc2ncnc3c2ncn3CCCN2CCN(Cc3cccc4ccccc34)CC2)cc1", "Potency": "active: 25.1 µM"},
      {"smiles": "COc1cccc(CN(C)C(=O)c2ccc(OCC(=O)Nc3cccc(C(F)(F)F)c3)c(OC)c2)c1", "Potency": "inconclusive: 20 µM [cytotoxic, partial curve]"},
      {"smiles": "C/C(=N\\NC(=O)COc1cccc(C)c1)c1ccc2ccccc2c1O", "Potency": "inconclusive: 25.1 µM [cytotoxic, partial curve]"},
      {"smiles": "CC(/C=C/c1ccc2c(c1)OCO2)=N\\NC(=O)c1cccc([N+](=O)[O-])c1", "Potency": "inactive"},
      {"smiles": "NC(=S)N1OC[C@@H]2COc3ccc4ccccc4c3[C@@H]21", "Potency": "inactive"},
      {"smiles": "Cc1ccc(CN2CCC(c3nc4ccc(Cl)cc4[nH]3)CC2)cc1", "Potency": "inactive"},
      {"smiles": "COc1ccc(CN2CCCN(S(=O)(=O)c3ccc(Br)cc3)CC2)cc1", "Potency": "inactive"},
      {"smiles": "CN(C)CCNC(=O)c1cccc(-c2cnc3c(NC=O)cc(-c4cccc(C(F)(F)F)c4)cn23)c1", "Potency": "inconclusive: 39.8 µM [cytotoxic, single point]"},
      {"smiles": "O=C(Nc1nccs1)c1cccc(N2C(=O)c3cccc4c([N+](=O)[O-])ccc(c34)C2=O)c1", "Potency": "inactive"},
      {"smiles": "O=C1/C(=C/c2ccc([N+](=O)[O-])cc2)C=C(c2ccccc2)N1c1ccc(O)cc1", "Potency": "inconclusive: 3.98 µM [cytotoxic, single point]"},
      {"smiles": "CCCC(=O)NC(c1ccc(C)cc1)c1ccc2cccnc2c1O", "note": "(stereo unspecified)", "Potency": "inconclusive: 3.55 µM [cytotoxic, full curve]"},
      {"smiles": "O=C(Nc1cccc2c1CCCC2)c1cc([N+](=O)[O-])ccc1Cl", "Potency": "inconclusive: 14.1 µM [cytotoxic, partial curve, poor fit]"},
      {"smiles": "Nc1nc(NCCCN2CCOCC2)nc(Nc2ccccc2F)c1[N+](=O)[O-]", "Potency": "inactive"},
      {"smiles": "CCN(CC)CCNc1ccnc2cc(Cl)ccc12", "Potency": "inactive"},
      {"smiles": "O=C(CNC(=O)c1ccccc1Br)N/N=C/c1cc(Br)ccc1O", "Potency": "inactive"},
      {"smiles": "Cc1ccc(C(=O)NCCN2C3=NC[C@@H](Cc4ccccc4)N3C[C@H]2Cc2ccc(O)cc2)cc1Br", "Potency": "inconclusive: 6.31 µM [cytotoxic, single point]"},
      {"smiles": "Cc1ccc2c(c1)N(C)/C(=C/c1cccc[n+]1C)S2", "Potency": "inconclusive: 3.16 µM [cytotoxic, partial curve]"},
      {"smiles": "Nc1ccc(Oc2ccccc2-c2ccccc2)cc1", "Potency": "inactive"},
      {"smiles": "Cc1ccc2nc(NNC(=O)c3ccc(S(=O)(=O)N4CCc5ccccc5C4)cc3)sc2c1", "Potency": "active: 10 µM"},
      {"smiles": "COc1ccc2sc(-c3ccc(SC)cc3)c(-c3ccc(O)cc3)c2c1", "Potency": "inconclusive: 28.2 µM [cytotoxic, single point]"},
      {"smiles": "O=C(CN1CCOCC1)N/N=C/c1c(O)ccc2ccccc12", "Potency": "inconclusive: 12.6 µM [cytotoxic, partial curve]"},
      {"smiles": "CCCc1ccc(O)c(N=Cc2cc(Br)cc(OCC)c2O)c1", "Potency": "inconclusive: 39.8 µM [cytotoxic, partial curve, poor fit]"},
      {"smiles": "c1ccc(CNc2nc(-c3ccccn3)nc3ccccc23)cc1", "Potency": "inconclusive: 10 µM [cytotoxic, partial curve]"},
      {"smiles": "COc1ccc(-n2c(-c3ccc(Cl)cc3)c[n+]3c2CCCCC3)cc1", "Potency": "inconclusive: 28.2 µM [cytotoxic, partial curve, poor fit]"},
      {"smiles": "CCOc1cc(C=C(C(=O)OC)C(=O)OC)ccc1OCc1ccc([N+](=O)[O-])cc1", "Potency": "active: 28.2 µM"},
      {"smiles": "O=C1C=Cc2cccc3ccc(O)c1c23", "Potency": "inactive"},
      {"smiles": "COc1cccc(/C=N/NC(=O)CNC(=O)C2COc3ccccc3O2)c1O", "note": "(stereo unspecified)", "Potency": "inconclusive: 12.6 µM [cytotoxic, partial curve, poor fit]"},
      {"smiles": "Nc1cccc2c1C(=O)N(C(=O)/C=C/c1cccc(Br)c1)C2=O", "Potency": "inactive"}
    ]}
  ]
}
